This is an account of results in PMC12714281.

Amino acid sequences for entries named in this document (tags omitted). A change or cut given only in a name is not applied to a line headed by its entry.
UniProt Q60932: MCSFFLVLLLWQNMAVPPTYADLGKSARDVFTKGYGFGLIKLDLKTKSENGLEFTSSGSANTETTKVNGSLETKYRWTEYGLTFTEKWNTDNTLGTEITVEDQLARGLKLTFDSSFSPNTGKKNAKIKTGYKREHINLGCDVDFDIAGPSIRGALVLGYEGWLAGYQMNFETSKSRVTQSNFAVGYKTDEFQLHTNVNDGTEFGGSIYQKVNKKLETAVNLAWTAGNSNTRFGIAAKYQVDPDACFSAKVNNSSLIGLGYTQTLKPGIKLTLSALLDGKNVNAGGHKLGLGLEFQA

The target of this test is T1, TMEM43, endogenous in mouse heart (mouse (endogenous in heart)) (UniProt Q9DBS1).
T1 sequence: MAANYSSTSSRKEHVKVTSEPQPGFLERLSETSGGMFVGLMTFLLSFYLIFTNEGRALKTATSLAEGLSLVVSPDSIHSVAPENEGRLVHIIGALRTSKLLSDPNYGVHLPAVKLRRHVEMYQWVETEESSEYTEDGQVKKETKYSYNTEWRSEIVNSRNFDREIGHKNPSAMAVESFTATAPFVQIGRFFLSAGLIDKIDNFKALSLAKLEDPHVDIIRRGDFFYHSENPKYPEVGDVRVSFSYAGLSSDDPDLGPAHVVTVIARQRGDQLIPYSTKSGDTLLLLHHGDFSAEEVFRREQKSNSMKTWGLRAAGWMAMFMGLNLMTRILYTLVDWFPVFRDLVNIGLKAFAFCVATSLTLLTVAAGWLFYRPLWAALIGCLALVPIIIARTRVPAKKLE
The test can be described thus: co-IP; endogenous IP from lysate of adult C57/B6 mouse hearts with antibodies of TMEM43 and VDAC1; immunoblotting.

No constants are given. Whether binding was seen depends on the method and setting. Binding seen in cells or lysates may run through a third protein. A result given as binding can be weak or reduced; the word gives no strength.

On to “VDAC1, endogenous in mouse heart (from UniProt Q60932)”, for which the binding entry is listed as “binds”.
